Measured values as given in paper PMC3415457, “Cohesin Rings Devoid of Scc3 and Pds5 Maintain Their Stable Association with the DNA” (PLoS Genetics, 2012).
Results are given in words; binding and its absence hold for the method and conditions named. Some binding calls cover weakened binding; strength is not graded here. Where a sequence is shown, tags or fusion partners need not be part of it.

T1: Scc3, recombinant, His6-tagged (S. cerevisiae (budding yeast)) (UniProt P40541)
T1 sequence: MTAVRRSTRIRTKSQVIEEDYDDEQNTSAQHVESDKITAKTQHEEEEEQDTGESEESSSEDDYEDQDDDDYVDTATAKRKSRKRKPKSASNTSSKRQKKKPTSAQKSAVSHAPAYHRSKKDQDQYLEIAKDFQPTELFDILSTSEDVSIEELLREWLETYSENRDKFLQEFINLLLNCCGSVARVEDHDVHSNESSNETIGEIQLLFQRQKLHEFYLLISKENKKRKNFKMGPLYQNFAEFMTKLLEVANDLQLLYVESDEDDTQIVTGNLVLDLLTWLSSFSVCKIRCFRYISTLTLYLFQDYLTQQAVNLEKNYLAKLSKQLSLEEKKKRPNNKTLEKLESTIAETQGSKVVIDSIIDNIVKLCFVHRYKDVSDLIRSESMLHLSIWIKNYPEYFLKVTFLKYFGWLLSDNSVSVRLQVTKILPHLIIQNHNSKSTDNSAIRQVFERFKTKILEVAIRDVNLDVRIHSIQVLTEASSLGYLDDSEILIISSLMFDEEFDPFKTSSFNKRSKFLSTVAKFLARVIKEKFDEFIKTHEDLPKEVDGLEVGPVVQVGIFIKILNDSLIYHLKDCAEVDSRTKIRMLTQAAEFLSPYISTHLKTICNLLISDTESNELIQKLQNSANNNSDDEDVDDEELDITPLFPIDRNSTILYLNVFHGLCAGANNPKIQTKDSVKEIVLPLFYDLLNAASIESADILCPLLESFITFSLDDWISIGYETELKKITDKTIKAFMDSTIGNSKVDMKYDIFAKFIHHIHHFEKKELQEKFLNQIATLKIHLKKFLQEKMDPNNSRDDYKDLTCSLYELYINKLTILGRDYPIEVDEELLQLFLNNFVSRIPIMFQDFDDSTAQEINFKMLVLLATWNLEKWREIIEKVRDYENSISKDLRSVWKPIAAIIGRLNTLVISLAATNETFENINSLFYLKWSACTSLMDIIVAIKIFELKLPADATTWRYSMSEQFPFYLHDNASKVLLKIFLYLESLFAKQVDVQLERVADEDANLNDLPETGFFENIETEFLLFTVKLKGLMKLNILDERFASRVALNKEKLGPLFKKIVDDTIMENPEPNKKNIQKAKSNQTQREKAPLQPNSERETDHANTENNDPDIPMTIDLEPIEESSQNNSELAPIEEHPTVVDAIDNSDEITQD

T2: GST fused to the N-terminal region (aa 1–168) of Scc1 (S. cerevisiae (budding yeast)) (UniProt Q12158)
T2 sequence: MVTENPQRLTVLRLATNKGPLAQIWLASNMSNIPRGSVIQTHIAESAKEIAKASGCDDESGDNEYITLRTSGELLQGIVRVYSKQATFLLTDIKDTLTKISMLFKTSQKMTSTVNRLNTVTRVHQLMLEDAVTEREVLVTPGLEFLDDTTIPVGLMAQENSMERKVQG

T3: Pds5, recombinant, His6-tagged (S. cerevisiae (budding yeast)) (UniProt Q04264)
T3 sequence: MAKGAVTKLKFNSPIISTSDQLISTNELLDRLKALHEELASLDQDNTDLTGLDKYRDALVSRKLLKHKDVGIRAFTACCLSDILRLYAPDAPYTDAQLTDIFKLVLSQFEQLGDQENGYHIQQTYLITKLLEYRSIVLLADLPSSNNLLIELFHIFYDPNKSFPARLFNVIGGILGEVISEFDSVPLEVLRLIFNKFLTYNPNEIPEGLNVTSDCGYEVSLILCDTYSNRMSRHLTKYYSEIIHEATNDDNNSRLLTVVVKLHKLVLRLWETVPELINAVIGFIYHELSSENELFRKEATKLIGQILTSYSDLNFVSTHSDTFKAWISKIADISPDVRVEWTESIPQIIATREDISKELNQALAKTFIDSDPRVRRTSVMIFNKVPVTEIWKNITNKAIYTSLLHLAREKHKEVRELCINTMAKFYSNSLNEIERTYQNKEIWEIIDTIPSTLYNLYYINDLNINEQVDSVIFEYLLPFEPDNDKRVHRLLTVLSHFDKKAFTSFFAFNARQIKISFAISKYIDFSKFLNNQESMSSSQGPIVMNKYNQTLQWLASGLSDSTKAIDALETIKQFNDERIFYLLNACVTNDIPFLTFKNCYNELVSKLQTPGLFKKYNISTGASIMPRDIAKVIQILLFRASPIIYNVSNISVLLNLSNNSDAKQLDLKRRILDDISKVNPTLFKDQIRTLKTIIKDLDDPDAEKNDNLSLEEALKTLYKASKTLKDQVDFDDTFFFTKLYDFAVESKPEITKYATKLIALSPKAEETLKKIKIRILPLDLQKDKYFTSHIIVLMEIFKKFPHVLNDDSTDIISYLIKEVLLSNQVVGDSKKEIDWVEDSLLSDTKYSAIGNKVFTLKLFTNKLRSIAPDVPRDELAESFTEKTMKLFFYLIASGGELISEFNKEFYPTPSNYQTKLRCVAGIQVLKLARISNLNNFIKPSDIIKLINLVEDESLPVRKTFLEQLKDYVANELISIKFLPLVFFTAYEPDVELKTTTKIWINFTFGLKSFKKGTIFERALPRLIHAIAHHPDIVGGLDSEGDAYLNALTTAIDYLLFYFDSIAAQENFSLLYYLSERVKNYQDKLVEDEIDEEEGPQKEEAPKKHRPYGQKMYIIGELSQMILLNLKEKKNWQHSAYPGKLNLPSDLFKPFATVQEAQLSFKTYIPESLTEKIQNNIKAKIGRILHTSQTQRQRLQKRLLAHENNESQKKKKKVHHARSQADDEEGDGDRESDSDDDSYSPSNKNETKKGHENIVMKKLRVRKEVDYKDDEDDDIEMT


How the values were obtained:
[1] = molecular target: T1, Scc3, recombinant, His6-tagged (S. cerevisiae (budding yeast)); experiment: co-sedimentation; 10–30% glycerol gradient; 10 mM HEPES-KOH pH 7.5, 75 mM NaCl, 0.25 mM EDTA; proteins mixed and preincubated 1 h at 4°C; 38000 rpm, 38 h, 4°C, SW40 Ti; fractions on Coomassie-stained SDS-PAGE; both purified
[2] = molecular target: T2, GST fused to the N-terminal region (aa 1–168) of Scc1 (S. cerevisiae (budding yeast)); experiment: pull-down; GST fusions of Scc1 regions on glutathione-agarose beads; His6-tagged Wpl1, Scc3 and Pds5 mixed together and pre-incubated 30 min at 4°C, then with beads 2 h at 4°C; 20 mM HEPES pH 7.5, 100 mM NaCl, 5% glycerol, 5 mM 2-mercaptoethanol; washes with 0.5% NP-40; Western blot with Penta-His antibody; both purified
[3] = molecular target: T3, Pds5, recombinant, His6-tagged (S. cerevisiae (budding yeast)); experiment: co-sedimentation; 10–30% glycerol gradient; 10 mM HEPES-KOH pH 7.5, 75 mM NaCl, 0.25 mM EDTA; proteins mixed and preincubated 1 h at 4°C; 38000 rpm, 38 h, 4°C, SW40 Ti; fractions on Coomassie-stained SDS-PAGE; both purified

Row | Binder | binding [1] | binding [2] | binding [3]
1 | Wpl1, recombinant, His6-tagged (natural protein, S. cerevisiae (budding yeast), UniProt Q99359 1-647, looked up, also called Rad61; His6-tagged Wpl1; source: E. coli BL21 (DE3) RIL, purified (Ni-NTA, gel filtration); not shown: His6, C-terminal, kept) MRAYGKRGPVLRTPFRSNKGLPSSSDVEFSDDDVNSVIPDVSSTISSSIADHPIEGLLDEPRKAQDSSSSFDGANEKPSSQLDSKRNDQNVKIITSSDTSMAFMKDEKLSAFNFLDGSKASKRKRRRTYQKHDANITSSIEPDVQDEDSITMHNEFESIRKIYNDINEFILKLPRADDDILNKMLENEMKMDDSIENNSIRTSKDKKYGKFRTILINKNKENEIMGEEVDQKANTLSLNNADNSNAEKEGLTSTNHYNELKNMGDTIKYQDDIEFLLSNSKSNDNTTVPINEYFKKLLNLSLMIINDEEFFQYAKRYFKKEIIKLSFAQFRSDFPELILLQGYLLHKVSESQSDFPPSFDNFSIELSKDDGKIRTKKNKHIKKLSHLNFEDFLRKTQFKTGLYYSLSLWEMHGNLSLDIIKRISILASNKDLFSRHVKTFIPLLEKLITASEFCHMYIEQPEMFDSLISNLNNQFKDMLDDDSLIKILILLTNMEVHNYTLWKEADMIFQSSMNTILESIHPLTDAKVDNILLHLGLCLNICSRENSRLKLDGKLWYDMKTIFVKMIRDGSDTENRLVQGLFYLNFSFLIKQRKENSNLDPGELNLLLVELEAFKSETSQFNEGISNKIEIALNYLKSIYTSERITI | binds weakly |  | 
2 | Scc3, recombinant, His6-tagged (protein, UniProt P40541 1-1150) MTAVRRSTRIRTKSQVIEEDYDDEQNTSAQHVESDKITAKTQHEEEEEQDTGESEESSSEDDYEDQDDDDYVDTATAKRKSRKRKPKSASNTSSKRQKKKPTSAQKSAVSHAPAYHRSKKDQDQYLEIAKDFQPTELFDILSTSEDVSIEELLREWLETYSENRDKFLQEFINLLLNCCGSVARVEDHDVHSNESSNETIGEIQLLFQRQKLHEFYLLISKENKKRKNFKMGPLYQNFAEFMTKLLEVANDLQLLYVESDEDDTQIVTGNLVLDLLTWLSSFSVCKIRCFRYISTLTLYLFQDYLTQQAVNLEKNYLAKLSKQLSLEEKKKRPNNKTLEKLESTIAETQGSKVVIDSIIDNIVKLCFVHRYKDVSDLIRSESMLHLSIWIKNYPEYFLKVTFLKYFGWLLSDNSVSVRLQVTKILPHLIIQNHNSKSTDNSAIRQVFERFKTKILEVAIRDVNLDVRIHSIQVLTEASSLGYLDDSEILIISSLMFDEEFDPFKTSSFNKRSKFLSTVAKFLARVIKEKFDEFIKTHEDLPKEVDGLEVGPVVQVGIFIKILNDSLIYHLKDCAEVDSRTKIRMLTQAAEFLSPYISTHLKTICNLLISDTESNELIQKLQNSANNNSDDEDVDDEELDITPLFPIDRNSTILYLNVFHGLCAGANNPKIQTKDSVKEIVLPLFYDLLNAASIESADILCPLLESFITFSLDDWISIGYETELKKITDKTIKAFMDSTIGNSKVDMKYDIFAKFIHHIHHFEKKELQEKFLNQIATLKIHLKKFLQEKMDPNNSRDDYKDLTCSLYELYINKLTILGRDYPIEVDEELLQLFLNNFVSRIPIMFQDFDDSTAQEINFKMLVLLATWNLEKWREIIEKVRDYENSISKDLRSVWKPIAAIIGRLNTLVISLAATNETFENINSLFYLKWSACTSLMDIIVAIKIFELKLPADATTWRYSMSEQFPFYLHDNASKVLLKIFLYLESLFAKQVDVQLERVADEDANLNDLPETGFFENIETEFLLFTVKLKGLMKLNILDERFASRVALNKEKLGPLFKKIVDDTIMENPEPNKKNIQKAKSNQTQREKAPLQPNSERETDHANTENNDPDIPMTIDLEPIEESSQNNSELAPIEEHPTVVDAIDNSDEITQD |  | binds weakly | binds weakly
